Measured values taken from patent US12384818B2, “Cyclin-dependent kinase 5 (CDK5) inhibitory peptides” (Massachusetts Institute of Technology, priority 2017, dated 2025).
“Also recorded” adds a separate entry of the source. Part of at least one peptide drawing is inferred or uncertain, most often the ends. Ends that are not written are not given here.

By UniProt entry, the sequences of proteins in these tests, tags left out. Where a name states a change or a piece, a line headed by the entry shows the natural chain unless it says otherwise.
UniProt P49615, whole entry: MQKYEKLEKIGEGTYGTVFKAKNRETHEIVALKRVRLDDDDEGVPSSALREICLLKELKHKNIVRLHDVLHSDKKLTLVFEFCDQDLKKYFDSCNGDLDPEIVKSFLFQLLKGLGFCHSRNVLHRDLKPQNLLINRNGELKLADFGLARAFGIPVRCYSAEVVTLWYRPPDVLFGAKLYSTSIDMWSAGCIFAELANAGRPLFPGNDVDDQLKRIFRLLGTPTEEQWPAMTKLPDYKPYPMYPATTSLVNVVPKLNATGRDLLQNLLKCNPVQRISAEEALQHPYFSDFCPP
UniProt P11440, whole entry: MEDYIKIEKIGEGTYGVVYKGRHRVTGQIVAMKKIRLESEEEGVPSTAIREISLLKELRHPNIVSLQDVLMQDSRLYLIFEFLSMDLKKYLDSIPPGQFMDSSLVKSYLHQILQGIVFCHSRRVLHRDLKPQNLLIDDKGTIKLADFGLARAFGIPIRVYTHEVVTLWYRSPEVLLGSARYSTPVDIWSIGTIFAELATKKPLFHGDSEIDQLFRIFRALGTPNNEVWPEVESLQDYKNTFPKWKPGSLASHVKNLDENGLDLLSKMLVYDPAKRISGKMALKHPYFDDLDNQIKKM
UniProt P61809: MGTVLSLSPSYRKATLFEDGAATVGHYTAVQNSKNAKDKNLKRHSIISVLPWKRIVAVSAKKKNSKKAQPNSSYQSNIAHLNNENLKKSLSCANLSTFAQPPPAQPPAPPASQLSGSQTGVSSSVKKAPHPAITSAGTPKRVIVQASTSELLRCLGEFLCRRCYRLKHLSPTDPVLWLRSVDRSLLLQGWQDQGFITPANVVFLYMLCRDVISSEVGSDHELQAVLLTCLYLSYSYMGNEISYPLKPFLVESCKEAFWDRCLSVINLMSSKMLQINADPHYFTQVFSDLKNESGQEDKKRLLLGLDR
UniProt Q00535, whole entry: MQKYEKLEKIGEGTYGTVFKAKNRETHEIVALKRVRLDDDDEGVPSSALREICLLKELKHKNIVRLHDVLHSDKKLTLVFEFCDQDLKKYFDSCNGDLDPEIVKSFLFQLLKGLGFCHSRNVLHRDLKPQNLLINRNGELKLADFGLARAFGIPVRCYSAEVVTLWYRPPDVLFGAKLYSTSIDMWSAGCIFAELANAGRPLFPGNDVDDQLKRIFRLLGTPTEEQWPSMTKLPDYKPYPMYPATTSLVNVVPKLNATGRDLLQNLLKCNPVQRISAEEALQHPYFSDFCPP

Assays:
CDK2 = biological target: T1, CDK2 (Mus musculus, UniProt P97377); experiment: Peptide interaction in mouse brain tissue samples: CDK2; assay type: binding; settings: brain tissue from P301S and control mice; FIG. 4
T1 construct: brain tissue samples from P301S and control mice were used; from tissue; host or cells: mouse brain (P301S and control mice)

γH2AX = γH2AX (DNA damage) in fAD iPSC-derived neural progenitor cells; assay type: cell-based, human; settings: PSEN1 M146I NPCs; FIG. 7
CDK5 [1] = biological target: T2, CDK5 (Mus musculus, UniProt P49615); experiment: CDK5 kinase activity in mouse brain tissue incubated with peptide; assay type: biochemical, mice
T2 construct: brain tissue samples from P301S and control mice were used; from tissue; host or cells: mouse brain (P301S tau transgenic and control mice)

CDK1 = biological target: T3, CDK1 (Mus musculus, UniProt P11440); experiment: Peptide interaction in mouse brain tissue samples: CDK1; assay type: binding; settings: brain tissue from P301S and control mice; FIG. 4
T3 construct: brain tissue samples from P301S and control mice were used; from tissue; host or cells: mouse brain (P301S and control mice)

CDK5 [2] = biological target: T2, CDK5; experiment: Peptide interaction in mouse brain tissue samples: CDK5; assay type: binding; settings: brain tissue from P301S and control mice; FIG. 4
p35 = biological target: T4, p35 (Mus musculus, UniProt P61809); experiment: Peptide interaction in mouse brain tissue samples: p35; assay type: binding; settings: brain tissue from P301S and control mice; FIG. 4
T4 construct: brain tissue samples from P301S and control mice were used; from tissue; host or cells: mouse brain (P301S and control mice)

[3] = biological target: T5, Purified recombinant p25/CDK5 complex (Homo sapiens, UniProt Q00535); experiment: In vitro CDK5 kinase assay with radiolabeled ATP and substrate H1; assay type: biochemical; settings: compared to scrambled peptide-treated group, FIG. 3
T5 construct: calpain, which then cleaves p35 into p25

HDAC2 = HDAC2 levels in fAD iPSC-derived neural progenitor cells; assay type: cell-based, human; settings: PSEN1 M146I NPCs; FIG. 7

ARAFGIPVRCYS [CDK5i]
binding to CDK2 (CDK2): does not bind and not | levels of γH2AX (indicative of DNA damage) (γH2AX): significantly reduced | kinase activity of CDK5 (CDK5 [1]; brain of P301S mice, FIG. 5B): significantly reduces | basal CDK5 activity (CDK5 [1]; brain tissue from control mice, FIG. 5A): no change; also recorded: not affect | binding to CDK1 (CDK1): does not bind and not | interaction with CDK5 (CDK5 [2]): physically interacts | interaction with p35 (p35): physically interacts | CDK5 kinase activity [3]: significantly reduced | levels of HDAC2 (HDAC2): significantly reduced
